{"source": "paper PMC10882974", "about": "(Environmental Science & Technology, 2024)", "key": {"C. elegans [1]": {"test_system": "C. elegans", "assay": "general activity test (WMicrotracker)", "assay_type": "in vivo, Caenorhabditis elegans", "settings": "nominal concentrations; S medium with E. coli OD600 0.4; 24 h exposure; read-out: EC50 for the effect on activity (+95% confidence intervals)", "procedure": "Two quadrants were spiked with 2 μL of an attractant (0.5% diacetyl), and two contained 2 μL water as a control.[30] After 45 min, during which the worms could move freely, the dish was moved to 4 °C to immobilize the worms, and the number of worms in each quadrant was counted. The general activity was measured with a WMicrotracker from Phylumtech. This system measured the collective movement in multiwell plates by detecting the number of interruptions of an infrared beam over time. The total number of interruptions over a 30 min period was calculated with the Wmicrotracker software. […] For all data points, the mean and standard deviation were plotted using Graphpad Prism 9.4. The ordinary differential equations and parameters fitted in Matlab were also entered in Graphpad Prism to simulate the internal concentrations over time."}, "C. elegans [2]": {"test_system": "C. elegans", "assay": "chemotaxis assay (diacetyl attractant)", "assay_type": "in vivo, Caenorhabditis elegans", "settings": "nominal concentrations; 72 h exposure from L1; S medium with E. coli OD600 0.4; read-out: EC50 for chemotaxis (+95% confidence intervals)", "procedure": "Two quadrants were spiked with 2 μL of an attractant (0.5% diacetyl), and two contained 2 μL water as a control.[30] After 45 min, during which the worms could move freely, the dish was moved to 4 °C to immobilize the worms, and the number of worms in each quadrant was counted. For all data points, the mean and standard deviation were plotted using Graphpad Prism 9.4. The ordinary differential equations and parameters fitted in Matlab were also entered in Graphpad Prism to simulate the internal concentrations over time."}, "C. elegans [3]": {"test_system": "C. elegans", "settings": "ref previous studies; cited from earlier work"}}, "note": "Where a name gives a salt, the structure may show the parent alone."}
{"smiles": "CNCCC(Oc1ccc(C(F)(F)F)cc1)c1ccccc1", "note": "(stereo not drawn) [fluoxetine, Fluoxetine hydrochloride]", "values": [{"measurement": "EC50", "setting": "C. elegans [1]", "result": 40, "unit": "µg/mL"}, {"measurement": "EC50", "setting": "C. elegans [2]", "result": 16, "unit": "µg/mL"}, {"measurement": "EC50 for the effect on C. elegans feeding behavior", "setting": "C. elegans [3]", "result": 7, "unit": "µg/mL"}]}
